The assay has as its target Fibroblast activation protein alpha (FAP) in HCT116 cell lysates (human (endogenous in HCT116)) (UniProt Q12884). Nature of the assay: affinity purification with mass spectrometry; HCT116 cell lysates immunoprecipitated with anti-FAP antibody (IgG as negative control), protein A agarose, silver staining, LC/MS (Orbitrap Fusion LUMOS).

By UniProt entry, the sequences of proteins in these tests, tags left out.
UniProt Q12884: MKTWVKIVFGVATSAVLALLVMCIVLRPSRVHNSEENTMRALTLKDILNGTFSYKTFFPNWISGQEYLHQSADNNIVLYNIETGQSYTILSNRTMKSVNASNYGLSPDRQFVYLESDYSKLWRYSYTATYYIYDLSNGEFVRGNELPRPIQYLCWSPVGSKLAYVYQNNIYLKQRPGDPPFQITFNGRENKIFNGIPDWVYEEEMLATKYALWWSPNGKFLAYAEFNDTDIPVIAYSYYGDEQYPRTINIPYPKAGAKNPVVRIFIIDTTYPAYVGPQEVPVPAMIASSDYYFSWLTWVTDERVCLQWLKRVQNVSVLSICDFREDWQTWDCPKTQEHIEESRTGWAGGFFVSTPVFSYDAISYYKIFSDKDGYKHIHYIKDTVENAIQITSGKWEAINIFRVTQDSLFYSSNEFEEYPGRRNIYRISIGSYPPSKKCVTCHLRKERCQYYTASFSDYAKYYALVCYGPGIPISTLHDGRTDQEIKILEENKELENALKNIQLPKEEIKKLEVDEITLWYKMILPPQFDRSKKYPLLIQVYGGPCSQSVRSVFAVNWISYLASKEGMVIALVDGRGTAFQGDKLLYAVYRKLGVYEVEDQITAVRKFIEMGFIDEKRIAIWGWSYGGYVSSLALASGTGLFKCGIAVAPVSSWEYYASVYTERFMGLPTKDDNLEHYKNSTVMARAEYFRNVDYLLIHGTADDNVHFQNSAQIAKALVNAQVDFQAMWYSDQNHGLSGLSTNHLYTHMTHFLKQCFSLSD
UniProt P06733: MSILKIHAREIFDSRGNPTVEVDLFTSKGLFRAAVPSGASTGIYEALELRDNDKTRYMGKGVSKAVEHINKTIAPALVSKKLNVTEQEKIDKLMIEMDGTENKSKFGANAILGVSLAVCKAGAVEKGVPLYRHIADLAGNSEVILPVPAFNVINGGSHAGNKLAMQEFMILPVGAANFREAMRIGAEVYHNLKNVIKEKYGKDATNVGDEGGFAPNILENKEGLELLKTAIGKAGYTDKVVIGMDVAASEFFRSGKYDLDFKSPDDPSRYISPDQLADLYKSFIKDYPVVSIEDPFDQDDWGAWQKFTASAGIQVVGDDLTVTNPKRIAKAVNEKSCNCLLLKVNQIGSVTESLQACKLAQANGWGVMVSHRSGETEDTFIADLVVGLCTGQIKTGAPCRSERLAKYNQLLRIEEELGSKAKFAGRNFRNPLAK

The record followed here is article PMC8149633.

Results are given in words; binding and its absence hold for the method and conditions named. Binding seen in cells or lysates may run through a third protein. These calls come from enrichment with a bait or labelling near it, and not all partners need be listed.

As for “Enolase1 (ENO1) (from UniProt P06733 1-434)”, the binding result is given as “binds”.
